Patent US11046889B2, “Polymerizable compound and optically anisotropic body” (DIC Corporation, priority 2015, dated 2021)

Assay: Adhesiveness of UV-cured coating film by cross cutting method (JIS K5600-5-6)
Conditions: coating film from 18.9% compound, 1% Irgacure 907, 0.1% 4-methoxyphenol, 80% chloroform; UV 40 mW/cm^2 for 25 seconds; 2 mm-square grid cross cut

Compound | Results of adhesiveness
C=CC(=O)OCCOCCOCCOc1ccc(OC(=O)C2CCC(C(=O)Oc3ccc(C4CCC(CCC)CC4)cc3/C=N/Nc3nc4ccccc4s3)CC2)cc1 (centres unmarked) [Compound I-2] | Class 2 (the coating film is peeled along the cutting line at intersections (5% or more and less than 15%).)
C=CC(=O)OCCCCCCOc1ccc(OC(=O)C2CCC(C(=O)Oc3ccc(C4CCC(C5CCC(CCC)CC5)CC4)cc3/C=N/N(CCOCCOC)c3nc4ccccc4s3)CC2)cc1 (centres unmarked) [Compound I-17] | Class 2 (the coating film is peeled along the cutting line at intersections (5% or more and less than 15%).)
C=CC(=O)OCCCCCCOc1ccc(OC(=O)C2CCC(C(=O)Oc3ccc(OC(=O)C4CCC(C(=O)Oc5ccc(OCCCCCCOC(=O)C=C)cc5)CC4)c4sc(-c5ccc([N+](=O)[O-])cc5)nc34)CC2)cc1 (centres unmarked) [Compound R-2, reference compound] | Class 4 (the coating film is largely peeled partially or entirely along the cutting line (35% or more and less than 65%).)
C=CC(=O)OCCCCCCOc1ccc(OC(=O)C2CCC(COc3ccc(-c4ccc(CCC)cc4)c(/C=N/N(CCOCCOC)c4nc5ccccc5s4)c3)CC2)cc1 (centres unmarked) [Compound I-11] | Class 2 (the coating film is peeled along the cutting line at intersections (5% or more and less than 15%).)
C=CC(=O)OCCOCCOc1ccc(OC(=O)C2CCC(C(=O)Oc3ccc(OC(=O)C4CCC(C(=O)Oc5ccc(OCCOCCOC(=O)C=C)cc5)CC4)c4sc(-c5cc6c(C)cc(C)cc6o5)nc34)CC2)cc1 (centres unmarked) [Compound I-13] | Class 3 (the coating film is peeled partially or entirely along the cutting line (15% or more and less than 35%).)
C=CC(=O)OCCCOC(=O)C1CCC(C(=O)OC2CCC(C(=O)Oc3ccc(OC(=O)C4CCC(OC(=O)C5CCC(C(=O)OCCCOC(=O)C=C)CC5)CC4)c4c3SC(=C3C(=O)N(c5ccccc5)N=C3C(=O)OCC)S4)CC2)CC1 (centres unmarked) [Compound R-3, reference compound] | Class 4 (the coating film is largely peeled partially or entirely along the cutting line (35% or more and less than 65%).)
C=C(C)C(=O)OCCCCCCOc1ccc(OC(=O)C2CCC(COc3ccc(OCC4CCC(C(=O)Oc5ccc(OCCCCCCOC(=O)C(=C)C)cc5)CC4)c(/C=N/N(CCOCCOC)c4nc5ccccc5s4)c3)CC2)cc1 (centres unmarked) [Compound I-16] | Class 2 (the coating film is peeled along the cutting line at intersections (5% or more and less than 15%).)
C=CC(=O)OCCOCCOCCOc1ccc(OC(=O)C2CCC(C(=O)Oc3ccc(C4CCC(C5CCC(CCC)CC5)CC4)cc3/C=N/N(CCCCCC)c3nc4ccccc4s3)CC2)cc1 (centres unmarked) [Compound I-4] | Class 2 (the coating film is peeled along the cutting line at intersections (5% or more and less than 15%).)
C=CC(=O)OCCCCCCOc1ccc(OC(=O)C2CCC(C(=O)Oc3ccc(C4CCC(CCC)CC4)cc3/C=N/N(CCOCCOC)c3nc4ccccc4s3)CC2)cc1 (centres unmarked) [Compound I-7] | Class 2 (the coating film is peeled along the cutting line at intersections (5% or more and less than 15%).)
C=CC(=O)OCCOCCOCCOc1ccc(OC(=O)C2CCC(C(=O)Oc3ccc(C4CCC(CCC)CC4)cc3/C=N/N(CCCCCC)c3nc4ccccc4s3)CC2)cc1 (centres unmarked) [Compound I-3] | Class 2 (the coating film is peeled along the cutting line at intersections (5% or more and less than 15%).)
C=CC(=O)OCCOCCOC(=O)C1CCC(C(=O)OC2CCC(C(=O)Oc3ccc(OC(=O)C4CCC(OC(=O)C5CCC(C(=O)OCCOCCOC(=O)C=C)CC5)CC4)c4c3SC(=C3C(=O)N(c5ccccc5)N=C3C(=O)OCC)S4)CC2)CC1 (centres unmarked) [Compound I-14] | Class 3 (the coating film is peeled partially or entirely along the cutting line (15% or more and less than 35%).)
C=CC(=O)OCCCCCCOc1ccc(OC(=O)C2CCC(COc3ccc(OCC4CCC(C(=O)Oc5ccc(OCCCCCCOC(=O)C=C)cc5)CC4)c(/C=N/N(CCOCCOC)c4nc5ccccc5s4)c3)CC2)cc1 (centres unmarked) [Compound I-6] | Class 2 (the coating film is peeled along the cutting line at intersections (5% or more and less than 15%).)
C=CC(=O)OCCOCCOCCOc1ccc(C(=O)Oc2ccc(-c3ccc(CCC)cc3)cc2/C=N/Nc2nc3ccccc3s2)cc1 [Compound I-1] | Class 2 (the coating film is peeled along the cutting line at intersections (5% or more and less than 15%).)
C=CC(=O)OCCOCCOCCOc1ccc(OC(=O)C2CCC(COc3ccc(OCC4CCC(C(=O)Oc5ccc(OCCOCCOCCOC(=O)C=C)cc5)CC4)c(/C=N/N(CCCCCC)c4nc5ccccc5s4)c3)CC2)cc1 (centres unmarked) [Compound I-5] | Class 2 (the coating film is peeled along the cutting line at intersections (5% or more and less than 15%).)
C=CC(=O)OCCCCCCOc1ccc(OC(=O)C2CCC(C(=O)Oc3ccc(OC(=O)C4CCC(C(=O)Oc5ccc(OCCCCCCOC(=O)C=C)cc5)CC4)c(/C=N/N(COCCOC)c4nc5ccccc5s4)c3)CC2)cc1 (centres unmarked) [Compound R-1, reference compound] | Class 3 (the coating film is peeled partially or entirely along the cutting line (15% or more and less than 35%).)
C=CC(=O)OCCCOc1ccc(OC(=O)C2CCC(COc3ccc(OCC4CCC(C(=O)Oc5ccc(OCCCOC(=O)C=C)cc5)CC4)c(/C=N/N(CCOCCOC)c4nc5ccccc5s4)c3)CC2)cc1 (centres unmarked) [Compound I-8] | Class 2 (the coating film is peeled along the cutting line at intersections (5% or more and less than 15%).)
C=CC(=O)OCCCCCCOc1ccc(OC(=O)C2CCC(COc3ccc(C4CCC(CCC)CC4)cc3/C=N/N(CCOCCOC)c3nc4ccccc4s3)CC2)cc1 (centres unmarked) [Compound I-10] | Class 2 (the coating film is peeled along the cutting line at intersections (5% or more and less than 15%).)
C=CC(=O)OCCCCCCOc1ccc(OC(=O)C2CCC(COc3ccc(OCC4CCC(C(=O)Oc5ccc(OCCCCCCOC(=O)C=C)cc5)CC4)c(/C=N/N(CCOCCOCCOC(=O)C=C)c4nc5ccccc5s4)c3)CC2)cc1 (centres unmarked) [Compound I-9] | Class 1 (a little peeling of the coating film is found at intersections of the cutting (less than 5%).)
C=CC(=O)OCCCCOC(=O)C1CCC(C(=O)OC2CCC(C(=O)Oc3ccc(OC(=O)C4CCC(OC(=O)C5CCC(C(=O)OCCCCOC(=O)C=C)CC5)CC4)c4c3SC(=C(C#N)C(=O)OCCOCCOC(=O)C=C)S4)CC2)CC1 (centres unmarked) [Compound I-15] | Class 3 (the coating film is peeled partially or entirely along the cutting line (15% or more and less than 35%).)
C=CC(=O)OCCOCCOCCOc1ccc(OC(=O)C2CCC(C(=O)Oc3ccc(OC(=O)C4CCC(C(=O)Oc5ccc(OCCOCCOCCOC(=O)C=C)cc5)CC4)c4sc(-c5ccc([N+](=O)[O-])cc5)nc34)CC2)cc1 (centres unmarked) [Compound I-12] | Class 2 (the coating film is peeled along the cutting line at intersections (5% or more and less than 15%).)
